Results as given in patent EP2385124A2.

What follows are binders tested against GST-DLG1 PDZ domains 1-2 fusion protein (human) (assay: A/G plate assay (TABLE 2)).

binding, binds:
QATSRNGHSARQHVVADTEL (biotin at the amino-terminus) [CD34 C-terminal PL peptide AA7L]
ISKATPALPTVSISSSAEV (biotin at the amino-terminus) [Clasp-1 C-terminal PL peptide AA1L]
CAISGTSSDRGYGSPRYAEV (biotin at the amino-terminus) [Clasp-4 C-terminal PL peptide AA3L]
ARKANMKGSYSLVEAQKSKV (biotin at the amino-terminus) [VCAM1 C-terminal PL peptide AA17L]
TTNNNPNSAVNIKKIFTDV (biotin at the amino-terminus) [KV1.3 C-terminal PL peptide AA33L]
TREDIYVNYPTFSRRPKTRV (biotin at the amino-terminus) [DNAM-1 C-terminal PL peptide AA22L]
VTSPNKHLGLVTPHKTELV (biotin at the amino-terminus) [CD83 C-terminal PL peptide AA47L]
TSGTGHNQTRALRASESGI (biotin at the amino-terminus) [CD97 C-terminal PL peptide AA14L]
QGDPALQDAGDSSRKEYFI (biotin at the amino-terminus) [Glycophorin C C-terminal PL peptide AA37L]
ARHRVTSYTSSSVNVSSNL (biotin at the amino-terminus) [CDW128A (IL8RA) C-terminal PL peptide AA29.1L]
SVFSIPTLWSPWPPSSSSQL (biotin at the amino-terminus) [CD3n C-terminal PL peptide AA4L]
AWDDSARAAGGQGLHVTAL (biotin at the amino-terminus) [LPAP C-terminal PL peptide AA30L]
KKGTYLTDETHREVKFTSL (biotin at the amino-terminus) [CD46 (Form 1) C-terminal PL peptide AA10L]
KDSRPSFVGSSSGHTSTTL (biotin at the amino-terminus) [CDW128B (IL8RB) C-terminal PL peptide AA29.2L]

Results are given in words; binding and its absence hold for the method and conditions named. A result given as binding can be weak or reduced; the word gives no strength.
